Source: publication PMC3591265
These are yes or no findings as the source states them, for the method shown. Some results given as binding are weak or reduced against the parent protein; the word gives no strength. Sequences can lack the tags named with a protein.

T1: OsSET1 (E. coli two-hybrid fusion) (Oryza sativa) (UniProt Q10MI4)
T1 sequence: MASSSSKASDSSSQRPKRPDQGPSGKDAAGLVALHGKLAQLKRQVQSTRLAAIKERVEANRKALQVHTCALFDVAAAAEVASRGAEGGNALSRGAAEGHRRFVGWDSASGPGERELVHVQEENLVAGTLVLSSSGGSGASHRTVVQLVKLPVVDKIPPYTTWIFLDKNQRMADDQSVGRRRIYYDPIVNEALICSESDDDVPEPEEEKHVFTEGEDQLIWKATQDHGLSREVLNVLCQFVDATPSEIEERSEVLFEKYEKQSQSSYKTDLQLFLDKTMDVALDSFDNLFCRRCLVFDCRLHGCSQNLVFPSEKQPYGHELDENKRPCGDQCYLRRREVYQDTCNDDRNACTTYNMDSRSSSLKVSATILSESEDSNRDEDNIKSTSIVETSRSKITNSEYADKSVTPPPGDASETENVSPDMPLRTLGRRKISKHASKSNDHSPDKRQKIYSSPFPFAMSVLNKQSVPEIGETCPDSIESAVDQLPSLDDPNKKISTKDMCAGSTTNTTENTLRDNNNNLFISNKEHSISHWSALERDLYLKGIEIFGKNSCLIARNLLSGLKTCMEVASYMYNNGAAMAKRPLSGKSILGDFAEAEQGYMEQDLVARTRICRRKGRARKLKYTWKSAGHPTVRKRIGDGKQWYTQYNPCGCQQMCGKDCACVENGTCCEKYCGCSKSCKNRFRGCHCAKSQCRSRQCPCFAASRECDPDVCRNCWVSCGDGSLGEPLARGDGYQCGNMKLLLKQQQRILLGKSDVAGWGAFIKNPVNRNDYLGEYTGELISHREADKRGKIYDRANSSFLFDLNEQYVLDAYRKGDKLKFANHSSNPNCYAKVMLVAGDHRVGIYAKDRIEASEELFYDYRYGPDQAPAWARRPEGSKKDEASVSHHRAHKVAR

B1: OsFIE2 (E. coli two-hybrid fusion) (protein, UniProt Q6ZJX0 1-376)
chain: MAKLGPGQGLGCEAAVGLLAPSRKREYKACNKLTEGKRPLYAIGFNFLDFHYYEVFATVGGNRVTTYSCLKDGNFAILQAYIDEDKDESFYTLSWACDLDGTPLLVAAGSNGIIRVINCATEKLLKTFVGHGDSINEIRTQALKPSLIISASKDESVRLWNVHTGICILIFAGAGGHRNEVLSVDFHPSDIYRIASCGMDNTVKIWSMKEFWPYVEQSFTWTDLPSKFPTKYVQFPVLVAVVHSNYVDCTRWLGDFILSKSVDNEIVLWEPKTKEQSPGEGSIDILQKYPVPECDIWFIKFSCDFHFNQLAIGNREGKVFVWEVQSSPPVLTARLTNPQCKSAIRQTAVSFDGSTILACSEDGSIWRWDEVDHPKA
B2: OsCLF (E. coli two-hybrid fusion) (protein, UniProt Q5VN06 1-896)
chain: MAGDSRNEPMFCEEGSSESGYVLCVIDSLKKKITSDRFVYIQKRVEENSIKLSPITLHSHNLSKNRQTSTSNSTDLVSNLLTKRKEDALCAVNSRESSPDESEGANCQDECSSTVIVGGNLSARNSVRPIRLPEVATLPPYTTWIFLDRNQRMQEDQSVLGRRRIYYDTNCGEALICSDSEDEAVEDEEEKKEFKDSEDCIIRMTIQECGMSDAVLETLARDIERAPDDIKARYEILQGEKPEGSSKKVSELNVKMEDVYGDKDLDAALDSFDNLFCRRCLVFDCKLHGCSQDLVFPTEKQAPLCSSDEGTPCGIHCYKLVSKPDAIMEIDSHLLVDVEEPTSDNLKDQIGSNKKKLGSSGQKTKSQQSESSSTARVSSESSESEVQLLSNKSPQHSPGLSKNKLGAKGGIKKSTNRRIAERILMSVKKGQQEMSPDSNSIVNGCHWPRDMKLRSDTRSGIKDSVVSSQCNSPSTRSFRKKGTLQMENNSSFVDAQSDSMEDTNNEHSATDGCDSSRKEECVDESICRQEAHGRSWKVIEQGLLLKGLEIFGKNSCLIARNLLGGMKTCTDVFQYMNYIENSSASGALSGVDSLVKGYMKGNELRTRSRFVRRRGRVRRLKYTWKTAGYHFIRKRITERKDQPCRQYTPCGCQSACGKQCPCLTNGTCCEKYCGCPKMCKNRFRGCHCAKSQCRSRQCPCFAADRECDPDVCRNCWVGCGDGTLGVPNQRGDNYECRNMKLLLKQQQRVLLGRSDVSGWGAFLKNSVGKHEYLGEYTGELISHKEADKRGKIYDRENSSFLFNLNNEYVLDAYRMGDKLKFANHSPDPNCYAKVIMVAGDHRVGIFAKERISAGEELFYDYRYEPDRAPAWARKPEGPGAKDDAQPSTGRAKKLAH

Target: T1, OsSET1 (E. coli two-hybrid fusion) (Oryza sativa)
Assay: two-hybrid; E. coli two-hybrid (BacterioMatch II, Agilent); bait pBT and target pTRG co-transformed; selective medium with 3-AT, dual selective medium with 3-AT and streptomycin

Row | Binder | binding
1 | B1 | binds
2 | B2 | no binding
